PubChem BioAssay AID504784 | Drosophila RNAi Screening Center | 2011
Aim: 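Fly genes whose silencing alters how much lipid cells keep in droplets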 (primary screen). System: Drosophila Kc167 embryonic cells. Knock-down reagent: long dsRNA against Drosophila genes, about 250 ng dsRNA per well. Duration: 4 days. Treatment: cells fed 400 µM oleic acid bound to BSA. Read-out: 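Cells imaged and segmented; ratio of lipid droplet area to nuclear area, log-transformed, then normalised as a B-score over the screen; higher means more stored lipid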. Direction: droplet/nuclear area B-score: higher = more stored lipid (overstorage).
The deposit covers about 17,000 reagents; this is an unselected part of those with a known target gene and a result. 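Each column is one replicate's B-score; the combined score over replicates was not deposited, so single values may mislead.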 Reagents against one gene are numbered here. Names joined by + are all predicted targets of the reagent. Not all columns of the deposit are shown.

After knock-down of CG32052, the screen gave droplet/nuclear area B-score, replicate 1 = -0.00856.
With knock-down of Aptx (aprataxin), the screen gave droplet/nuclear area B-score, replicate 1 = -0.526.
After knock-down of CG13564, the screen gave droplet/nuclear area B-score, replicate 1 = -0.754.
Knock-down of CG8492 #1 resulted in: droplet/nuclear area B-score, replicate 1 = 0.517.
CG8492 #2 scored droplet/nuclear area B-score, replicate 1 = -2.69.
Silencing of Acsx1L (Acyl-CoA synthetase X1 L) came out at: droplet/nuclear area B-score, replicate 1 = -1.33.
Against Prosalpha3T (Proteasome alpha3 subunit, Testis-specific) the deposit lists droplet/nuclear area B-score, replicate 1 = -0.214.
With knock-down of CG15118 the results were droplet/nuclear area B-score, replicate 1 = 1.25.
ect (ectodermal) #1 showed droplet/nuclear area B-score, replicate 1 = 0.986.
ect (ectodermal) #2 gave droplet/nuclear area B-score, replicate 1 = -0.561.
ect (ectodermal) #3 gave droplet/nuclear area B-score, replicate 1 = -0.264.
After knock-down of CG7548, the record shows droplet/nuclear area B-score, replicate 1 = 0.248.
Silencing of CG12911 resulted in: droplet/nuclear area B-score, replicate 1 = -0.487.
After knock-down of Ccp84Af the results were droplet/nuclear area B-score, replicate 1 = 1.21.
For Pkc53E (Protein C kinase 53E), the entry reads droplet/nuclear area B-score, replicate 1 = -0.0501.
Silencing of CG6136 came out at: droplet/nuclear area B-score, replicate 1 = -0.58.
Nca (Neurocalcin) gave droplet/nuclear area B-score, replicate 1 = 0.102.
With knock-down of Sec5 (Secretory 5), the record shows droplet/nuclear area B-score, replicate 1 = -2.4.
CG15203 scored droplet/nuclear area B-score, replicate 1 = 0.0783.
After knock-down of CG8112, the record shows droplet/nuclear area B-score, replicate 1 = -0.512.
RpS8 (Ribosomal protein S8) scored droplet/nuclear area B-score, replicate 1 = 2.91.

Records listed so far whose gene name starts with E or e (3):
ect (ectodermal) #1 | droplet/nuclear area B-score, replicate 1: 0.986
ect (ectodermal) #2 | droplet/nuclear area B-score, replicate 1: -0.561
ect (ectodermal) #3 | droplet/nuclear area B-score, replicate 1: -0.264

Continued:
With knock-down of Tengl2 (Testis EndoG-Like 2) the results were droplet/nuclear area B-score, replicate 1 = 4.26.
Paics (PAICS bifunctional enzyme) gave droplet/nuclear area B-score, replicate 1 = 1.36.
After knock-down of Letm1, the record shows droplet/nuclear area B-score, replicate 1 = 5.78.
After knock-down of sprt (sprite), the record shows droplet/nuclear area B-score, replicate 1 = 0.854.
Silencing of Jon99Cii (Jonah 99Cii) #1 came out at: droplet/nuclear area B-score, replicate 1 = -2.23.
Against Jon99Cii (Jonah 99Cii) #2, the entry reads droplet/nuclear area B-score, replicate 1 = -1.24.
Silencing of CG6511 came out at: droplet/nuclear area B-score, replicate 1 = 0.843.
For CCKLR-17D3 (Cholecystokinin-like receptor at 17D3) #1, the values are droplet/nuclear area B-score, replicate 1 = -1.55.
Against CCKLR-17D3 (Cholecystokinin-like receptor at 17D3) #2, the values are droplet/nuclear area B-score, replicate 1 = 0.938.
Depletion of pn (prune) resulted in: droplet/nuclear area B-score, replicate 1 = 0.714.
After knock-down of CG42726 + CG42727, the record shows droplet/nuclear area B-score, replicate 1 = -0.0293.
After knock-down of RpS5a (Ribosomal protein S5a), the record shows droplet/nuclear area B-score, replicate 1 = 2.42.
With knock-down of CG15812 the results were droplet/nuclear area B-score, replicate 1 = -0.618.
PGRP-SA (Peptidoglycan recognition protein SA) gave droplet/nuclear area B-score, replicate 1 = -0.169.
Against LManIV (Lysosomal alpha-mannosidase IV), the values are droplet/nuclear area B-score, replicate 1 = 0.667.
vlc (vulcan) showed droplet/nuclear area B-score, replicate 1 = -0.836.
Depletion of CG15080 gave: droplet/nuclear area B-score, replicate 1 = 0.0638.
Nup153 (Nucleoporin 153kD) scored droplet/nuclear area B-score, replicate 1 = -2.07.
Lcp65APsi (pseudo) #1 gave droplet/nuclear area B-score, replicate 1 = 0.437.
Knock-down of Lcp65APsi (pseudo) #2 came out at: droplet/nuclear area B-score, replicate 1 = -0.0785.
CG10116 showed droplet/nuclear area B-score, replicate 1 = 0.554.
After knock-down of dimm (dimmed), the screen gave droplet/nuclear area B-score, replicate 1 = -0.0172.
CG15531 gave droplet/nuclear area B-score, replicate 1 = 0.137.
With knock-down of Smyd5 (SET and MYND domain containing, class 5) the results were droplet/nuclear area B-score, replicate 1 = -0.575.
CG31178 scored droplet/nuclear area B-score, replicate 1 = -1.04.
After knock-down of Smg6 the results were droplet/nuclear area B-score, replicate 1 = -0.202.
Silencing of CG32579 came out at: droplet/nuclear area B-score, replicate 1 = 0.0666.
Depletion of RpL31 (Ribosomal protein L31) came out at: droplet/nuclear area B-score, replicate 1 = 3.21.
Knock-down of CG7707 gave: droplet/nuclear area B-score, replicate 1 = 0.209.
With knock-down of CG8008, the record shows droplet/nuclear area B-score, replicate 1 = -1.61.
